According to the supplement of paper PMC8728848:
The list shows a part of the results.

Assays:
Test in all cases: glycan array binding signal (z-score within array); higher = stronger binding
Details in all cases: glycan notation: IUPAC condensed, linker removed
[1] = target: GlcNAc(b1-3)Gal(b1-4)GlcNAc(b1-3)Gal(b1-4)GlcNAc(b1-3)GalNAc
In short: (§1)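 Negative Z-scores can be read as non-binding. The Z-score is calculated within each array and then averaged across arrays of one protein sequence at different concentrations or buffers and across linkers. Arrays, 3228 in all, were curated from the Consortium for Functional Glycomics database and kept only where the protein sequence was available.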

[2] = target: GlcNAc(b1-3)Gal(b1-4)GlcNAc(b1-3)GalNAc
In short: as §1

[3] = target: GlcNAc(b1-3)Gal(b1-4)GlcNAc(b1-3)[GlcNAc(b1-3)Gal(b1-4)GlcNAc(b1-3)]GalNAc
In short: as §1

[4] = target: GlcNAc(b1-3)Gal(b1-4)GlcNAc(b1-6)[Gal(b1-3)]GalNAc
In short: as §1

[5] = target: GlcNAc(b1-3)Gal(b1-4)GlcNAc(b1-6)[GlcNAc(b1-3)Gal(b1-3)]GalNAc
In short: as §1

[6] = target: GlcNAc(b1-3)Gal(b1-4)GlcNAc(b1-6)[GlcNAc(b1-3)]Gal(b1-4)GlcNAc
In short: as §1

[7] = target: GlcNAc(b1-3)GalNAc
In short: as §1

[8] = target: GlcNAc(b1-3)Man
In short: as §1

[9] = target: GlcNAc(b1-3)[GlcNAc(b1-4)][GlcNAc(b1-6)]GlcNAc
In short: as §1

[10] = target: GlcNAc(b1-3)[GlcNAc(b1-6)]Gal(b1-4)GlcNAc
In short: as §1

[11] = target: GlcNAc(b1-3)[GlcNAc(b1-6)]GalNAc
In short: as §1

[12] = target: GlcNAc(b1-4)Gal(b1-4)GlcNAc
In short: as §1

[13] = target: GlcNAc(b1-4)GlcNAc
In short: as §1

[14] = target: GlcNAc(b1-4)GlcNAc(b1-4)GlcNAc
In short: as §1

[15] = target: GlcNAc(b1-4)GlcNAc(b1-4)GlcNAc(b1-4)GlcNAc(b1-4)GlcNAc
In short: as §1

[16] = target: GlcNAc(b1-4)GlcNAc(b1-4)GlcNAc(b1-4)GlcNAc(b1-4)GlcNAc(b1-4)GlcNAc
In short: as §1

[17] = target: GlcNAc(b1-4)[GlcNAc(b1-6)]GalNAc
In short: as §1

[18] = target: GlcNAc(b1-6)Gal(b1-4)GlcNAc
In short: as §1

[19] = target: GlcNAc(b1-6)GalNAc
In short: as §1

[20] = target: GlcNAc6S(b1-3)Gal(b1-4)GlcNAc
In short: as §1

[21] = target: Kdn(a2-3)Gal(b1-3)GalNAc
In short: as §1

[22] = target: Kdn(a2-3)Gal(b1-3)GlcNAc
In short: as §1

[23] = target: Kdn(a2-3)Gal(b1-4)Glc
In short: as §1

[24] = target: Kdn(a2-3)Gal(b1-4)GlcNAc
In short: as §1

[25] = target: Kdn(a2-3)Gal(b1-4)[Fuc(a1-3)]GlcNAc
In short: as §1

[26] = target: Kdn(a2-6)Gal(b1-4)GlcNAc
In short: as §1

[27] = target: Man(a1-2)Man(a1-2)Man(a1-3)Man
In short: as §1

[28] = target: Man(a1-2)Man(a1-2)Man(a1-6)[Man(a1-3)]Man
In short: as §1

[29] = target: Man(a1-2)Man(a1-3)Man
In short: as §1

[30] = target: Man(a1-2)Man(a1-3)[Man(a1-2)Man(a1-6)]Man
In short: as §1

[31] = target: Man(a1-2)Man(a1-3)[Man(a1-2)Man(a1-6)]Man(a1-6)[Man(a1-2)Man(a1-2)Man(a1-3)]Man
In short: as §1

[32] = target: Man(a1-2)Man(a1-3)[Man(a1-2)Man(a1-6)]Man(a1-6)[Man(a1-2)Man(a1-2)Man(a1-3)]Man(b1-4)GlcNAc(b1-4)GlcNAc
In short: as §1

[33] = target: Man(a1-2)Man(a1-3)[Man(a1-6)]Man(a1-6)[Man(a1-2)Man(a1-3)]Man(b1-4)GlcNAc(b1-4)GlcNAc
In short: as §1

[34] = target: Man(a1-2)Man(a1-6)[Man(a1-3)]Man(a1-6)[Man(a1-2)Man(a1-2)Man(a1-3)]Man
In short: as §1

[35] = target: Man(a1-2)Man(a1-6)[Man(a1-3)]Man(a1-6)[Man(a1-2)Man(a1-2)Man(a1-3)]Man(b1-4)GlcNAc(b1-4)GlcNAc
In short: as §1

[36] = target: Man(a1-3)[Man(a1-6)]Man
In short: as §1

[37] = target: Man(a1-3)[Man(a1-6)]Man(a1-6)[Man(a1-2)Man(a1-3)]Man(b1-4)GlcNAc(b1-4)GlcNAc
In short: as §1

[38] = target: Man(a1-3)[Man(a1-6)]Man(a1-6)[Man(a1-3)]Man
In short: as §1

[39] = target: Man(a1-3)[Man(a1-6)]Man(a1-6)[Man(a1-3)]Man(b1-4)GlcNAc(b1-4)GlcNAc
In short: as §1

[40] = target: Man(a1-3)[Man(a1-6)]Man(b1-4)GlcNAc(b1-4)GlcNAc
In short: as §1

[41] = target: Man(a1-3)[Man(a1-6)]Man(b1-4)GlcNAc(b1-4)[Fuc(a1-6)]GlcNAc
In short: as §1

[42] = target: Man(a1-6)Man
In short: as §1

[43] = target: Man(b1-4)GlcNAc
In short: as §1

[44] = target: MurNAc(b1-4)GlcNAc
In short: as §1

[45] = target: Neu5Ac(a2-3)Gal
In short: as §1

B1: TAL6-4LysM (Trichoderma atroviride) (protein)
chain: AADSIPSISPTGIITPTPTQSGMVSNCNKFYDVHSNDGCSAIASSQHVDLSSLYKWNPAIKTDCSGLQASVYVCIGILTTSMSTTSKLPTTTSKPSTTSKPPTGITTPTPTQSGMVKNCNKFYDVHSGDGCSAIASSQKVNLSSFYLWNPAVKTDCSGLQASVFVCIGTLTTSMSTTTSKLPTTTSKPSTTSKPPTGIITPTPTQNGMVKNCNKFYDVHSGDGCSAIASSQKVNLSSFYLWNPAVKTDCSGLQASVFVCVGTATTTTAAGITTPTPTQSGMVSGCNKFYDVHAGDGCSAIASSQKIALSSLYKWNPAVKTDCSGLQASVYICIGVGNAAAARVTGALEQKLISEEDLNSAVDHHHHHH
glycan array binding signal (z-score) [1]: 0.581 | glycan array binding signal (z-score) [2]: -0.866 | glycan array binding signal (z-score) [3]: -0.152 | glycan array binding signal (z-score) [4]: 0.586 | glycan array binding signal (z-score) [5]: -0.887 | glycan array binding signal (z-score) [6]: -0.091 | glycan array binding signal (z-score) [7]: -0.74 | glycan array binding signal (z-score) [8]: 0.386 | glycan array binding signal (z-score) [9]: 0.432 | glycan array binding signal (z-score) [10]: 0.229 | glycan array binding signal (z-score) [11]: -0.105 | glycan array binding signal (z-score) [12]: 0.158 | glycan array binding signal (z-score) [13]: -0.601 | glycan array binding signal (z-score) [14]: -1.67 | glycan array binding signal (z-score) [15]: 1.44 | glycan array binding signal (z-score) [16]: -0.051 | glycan array binding signal (z-score) [17]: 0.968 | glycan array binding signal (z-score) [18]: -0.939 | glycan array binding signal (z-score) [19]: -0.418 | glycan array binding signal (z-score) [20]: 0.39 | glycan array binding signal (z-score) [21]: -1.56 | glycan array binding signal (z-score) [22]: 0.51 | glycan array binding signal (z-score) [23]: 0.121 | glycan array binding signal (z-score) [24]: 0.4 | glycan array binding signal (z-score) [25]: -0.467 | glycan array binding signal (z-score) [26]: -0.602 | glycan array binding signal (z-score) [27]: -0.593 | glycan array binding signal (z-score) [28]: 0.189 | glycan array binding signal (z-score) [29]: -1.23 | glycan array binding signal (z-score) [30]: 0.035 | glycan array binding signal (z-score) [31]: 0.042 | glycan array binding signal (z-score) [32]: -0.832 | glycan array binding signal (z-score) [33]: 0.6 | glycan array binding signal (z-score) [34]: 1.38 | glycan array binding signal (z-score) [35]: -1.15 | glycan array binding signal (z-score) [36]: 3.24 | glycan array binding signal (z-score) [37]: -1.28 | glycan array binding signal (z-score) [38]: -0.512 | glycan array binding signal (z-score) [39]: -0.007 | glycan array binding signal (z-score) [40]: -0.369 | glycan array binding signal (z-score) [41]: 0.616 | glycan array binding signal (z-score) [42]: -1.37 | glycan array binding signal (z-score) [43]: 0.015 | glycan array binding signal (z-score) [44]: -0.836 | glycan array binding signal (z-score) [45]: -0.938
